# Source: the supplement of paper PMC12823440, “Inhibitors supercharge kinase turnover through native proteolytic circuits” (Nature, 2025)
# Protein sequences, listed by entry. Tags and fused reporters are not part of them. Lines headed by an entry give the natural chain unless they say otherwise; changes in a name come on top.
# UniProt Q15208: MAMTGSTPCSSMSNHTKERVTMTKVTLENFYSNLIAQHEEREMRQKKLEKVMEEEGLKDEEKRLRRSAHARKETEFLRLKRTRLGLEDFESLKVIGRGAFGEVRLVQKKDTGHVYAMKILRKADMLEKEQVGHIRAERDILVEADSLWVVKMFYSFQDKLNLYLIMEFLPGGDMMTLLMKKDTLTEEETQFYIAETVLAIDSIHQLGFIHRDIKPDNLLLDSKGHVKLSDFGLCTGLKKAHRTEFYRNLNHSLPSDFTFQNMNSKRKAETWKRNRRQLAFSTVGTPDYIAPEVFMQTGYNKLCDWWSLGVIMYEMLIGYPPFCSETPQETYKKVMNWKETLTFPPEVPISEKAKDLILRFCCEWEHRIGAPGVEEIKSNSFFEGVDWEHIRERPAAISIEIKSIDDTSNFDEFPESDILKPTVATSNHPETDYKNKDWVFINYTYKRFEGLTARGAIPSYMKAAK
# UniProt P42680: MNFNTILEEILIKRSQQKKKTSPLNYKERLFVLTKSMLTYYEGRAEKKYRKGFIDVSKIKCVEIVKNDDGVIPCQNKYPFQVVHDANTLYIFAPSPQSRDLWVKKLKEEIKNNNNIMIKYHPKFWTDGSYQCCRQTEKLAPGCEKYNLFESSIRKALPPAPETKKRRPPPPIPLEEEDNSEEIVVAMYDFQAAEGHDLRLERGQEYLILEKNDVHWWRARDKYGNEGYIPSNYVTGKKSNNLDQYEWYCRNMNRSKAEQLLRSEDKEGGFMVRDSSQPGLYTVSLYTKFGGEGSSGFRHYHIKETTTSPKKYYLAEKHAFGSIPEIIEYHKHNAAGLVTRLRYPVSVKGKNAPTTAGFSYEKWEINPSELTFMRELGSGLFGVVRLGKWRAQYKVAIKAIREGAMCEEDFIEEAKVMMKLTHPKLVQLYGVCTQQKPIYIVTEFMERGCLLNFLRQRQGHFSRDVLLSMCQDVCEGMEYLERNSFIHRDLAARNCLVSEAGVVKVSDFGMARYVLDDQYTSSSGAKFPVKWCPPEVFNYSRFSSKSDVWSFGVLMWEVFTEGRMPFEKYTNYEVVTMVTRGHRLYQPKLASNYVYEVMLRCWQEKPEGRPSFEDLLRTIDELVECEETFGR
# UniProt P07947, whole entry, looked up: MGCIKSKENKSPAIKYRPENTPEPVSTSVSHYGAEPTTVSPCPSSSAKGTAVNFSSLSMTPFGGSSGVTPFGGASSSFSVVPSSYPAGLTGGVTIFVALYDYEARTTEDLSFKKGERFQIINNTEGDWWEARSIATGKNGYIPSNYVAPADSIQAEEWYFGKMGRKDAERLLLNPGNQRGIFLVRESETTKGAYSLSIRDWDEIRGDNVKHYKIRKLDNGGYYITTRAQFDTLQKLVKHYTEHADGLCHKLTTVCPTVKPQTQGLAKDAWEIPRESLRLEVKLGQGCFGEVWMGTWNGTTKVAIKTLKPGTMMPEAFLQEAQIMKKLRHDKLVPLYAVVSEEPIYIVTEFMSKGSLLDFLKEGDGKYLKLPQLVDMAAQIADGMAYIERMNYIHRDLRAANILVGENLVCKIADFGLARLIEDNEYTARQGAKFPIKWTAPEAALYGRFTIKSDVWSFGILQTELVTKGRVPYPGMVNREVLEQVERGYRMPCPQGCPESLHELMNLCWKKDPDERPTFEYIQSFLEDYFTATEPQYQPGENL
# UniProt P43403: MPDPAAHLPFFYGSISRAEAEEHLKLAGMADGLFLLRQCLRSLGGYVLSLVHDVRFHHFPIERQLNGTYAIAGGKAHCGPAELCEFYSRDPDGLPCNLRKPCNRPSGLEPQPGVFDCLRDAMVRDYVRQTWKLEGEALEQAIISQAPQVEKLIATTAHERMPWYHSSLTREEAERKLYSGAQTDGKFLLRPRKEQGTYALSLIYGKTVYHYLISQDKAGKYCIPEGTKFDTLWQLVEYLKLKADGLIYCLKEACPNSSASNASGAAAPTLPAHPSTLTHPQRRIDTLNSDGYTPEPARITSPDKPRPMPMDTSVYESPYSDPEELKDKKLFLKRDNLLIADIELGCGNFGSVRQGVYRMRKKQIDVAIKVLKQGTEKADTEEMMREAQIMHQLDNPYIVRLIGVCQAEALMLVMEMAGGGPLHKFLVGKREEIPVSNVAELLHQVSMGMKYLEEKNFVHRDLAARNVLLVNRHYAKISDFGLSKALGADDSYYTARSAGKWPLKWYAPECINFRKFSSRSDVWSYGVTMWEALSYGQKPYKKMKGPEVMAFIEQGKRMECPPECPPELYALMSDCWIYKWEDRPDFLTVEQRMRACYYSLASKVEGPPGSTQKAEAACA
# UniProt P31749: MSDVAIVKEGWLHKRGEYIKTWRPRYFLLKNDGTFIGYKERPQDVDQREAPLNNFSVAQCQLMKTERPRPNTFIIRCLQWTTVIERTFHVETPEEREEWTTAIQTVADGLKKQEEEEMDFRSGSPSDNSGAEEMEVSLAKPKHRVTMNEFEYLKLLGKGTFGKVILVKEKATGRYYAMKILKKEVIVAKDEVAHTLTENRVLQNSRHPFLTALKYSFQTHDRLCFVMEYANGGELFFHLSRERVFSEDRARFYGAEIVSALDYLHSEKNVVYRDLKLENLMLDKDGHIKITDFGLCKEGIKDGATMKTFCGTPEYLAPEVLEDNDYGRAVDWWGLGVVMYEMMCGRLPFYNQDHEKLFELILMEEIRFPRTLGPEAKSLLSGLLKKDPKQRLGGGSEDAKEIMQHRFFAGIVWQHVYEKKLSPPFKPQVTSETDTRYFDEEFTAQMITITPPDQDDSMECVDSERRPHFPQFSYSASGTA
# UniProt Q9UM73: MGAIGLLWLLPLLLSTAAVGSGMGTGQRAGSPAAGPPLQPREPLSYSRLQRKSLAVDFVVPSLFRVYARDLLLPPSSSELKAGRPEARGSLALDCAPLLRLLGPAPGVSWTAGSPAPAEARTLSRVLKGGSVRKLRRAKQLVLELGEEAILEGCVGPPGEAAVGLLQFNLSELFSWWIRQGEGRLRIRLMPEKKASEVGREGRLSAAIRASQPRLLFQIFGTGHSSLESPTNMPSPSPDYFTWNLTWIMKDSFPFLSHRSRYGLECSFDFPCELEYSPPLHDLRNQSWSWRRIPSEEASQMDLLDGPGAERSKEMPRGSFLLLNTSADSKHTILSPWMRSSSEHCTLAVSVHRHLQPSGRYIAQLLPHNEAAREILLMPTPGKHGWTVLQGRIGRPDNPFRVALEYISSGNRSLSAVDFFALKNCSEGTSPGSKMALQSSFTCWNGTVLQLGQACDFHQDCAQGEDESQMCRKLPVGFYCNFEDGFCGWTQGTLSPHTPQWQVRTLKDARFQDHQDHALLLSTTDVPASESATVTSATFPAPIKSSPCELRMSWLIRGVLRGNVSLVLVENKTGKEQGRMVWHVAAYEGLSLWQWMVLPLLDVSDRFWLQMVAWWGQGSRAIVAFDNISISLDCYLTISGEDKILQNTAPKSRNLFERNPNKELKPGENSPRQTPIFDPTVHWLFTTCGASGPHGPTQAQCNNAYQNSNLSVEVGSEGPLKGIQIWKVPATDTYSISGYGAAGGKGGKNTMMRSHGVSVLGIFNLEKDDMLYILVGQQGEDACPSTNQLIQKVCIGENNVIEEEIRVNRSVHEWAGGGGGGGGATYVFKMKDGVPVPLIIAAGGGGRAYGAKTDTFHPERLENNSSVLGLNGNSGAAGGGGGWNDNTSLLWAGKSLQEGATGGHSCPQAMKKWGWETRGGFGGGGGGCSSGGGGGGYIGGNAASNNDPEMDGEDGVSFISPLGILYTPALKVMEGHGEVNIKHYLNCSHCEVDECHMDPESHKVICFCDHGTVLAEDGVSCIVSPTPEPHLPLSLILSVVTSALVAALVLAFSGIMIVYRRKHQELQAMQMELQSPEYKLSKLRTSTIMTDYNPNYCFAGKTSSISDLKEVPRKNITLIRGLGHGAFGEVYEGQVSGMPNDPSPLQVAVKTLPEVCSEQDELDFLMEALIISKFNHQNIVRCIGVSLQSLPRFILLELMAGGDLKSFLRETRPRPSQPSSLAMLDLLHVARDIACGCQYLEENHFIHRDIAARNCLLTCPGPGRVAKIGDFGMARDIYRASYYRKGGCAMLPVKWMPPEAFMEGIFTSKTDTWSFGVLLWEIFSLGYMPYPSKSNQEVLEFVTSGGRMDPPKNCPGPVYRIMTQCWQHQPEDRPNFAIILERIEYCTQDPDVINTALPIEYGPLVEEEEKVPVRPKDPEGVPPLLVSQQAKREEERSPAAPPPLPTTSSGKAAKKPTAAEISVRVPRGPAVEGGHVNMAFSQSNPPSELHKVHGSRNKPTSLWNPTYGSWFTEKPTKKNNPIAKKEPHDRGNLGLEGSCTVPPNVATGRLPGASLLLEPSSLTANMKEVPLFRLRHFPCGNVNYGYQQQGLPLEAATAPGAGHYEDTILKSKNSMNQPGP
# UniProt Q96GD4, whole entry: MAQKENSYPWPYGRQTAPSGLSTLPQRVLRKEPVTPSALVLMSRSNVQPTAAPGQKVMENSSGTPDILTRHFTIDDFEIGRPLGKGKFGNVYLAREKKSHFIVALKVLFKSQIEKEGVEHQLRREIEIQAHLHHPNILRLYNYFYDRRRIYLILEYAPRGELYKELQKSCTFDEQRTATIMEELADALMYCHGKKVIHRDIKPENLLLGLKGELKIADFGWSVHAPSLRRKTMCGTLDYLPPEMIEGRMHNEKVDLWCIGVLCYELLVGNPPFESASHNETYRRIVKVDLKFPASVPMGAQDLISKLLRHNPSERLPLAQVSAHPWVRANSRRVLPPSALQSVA
# UniProt Q9UQB9: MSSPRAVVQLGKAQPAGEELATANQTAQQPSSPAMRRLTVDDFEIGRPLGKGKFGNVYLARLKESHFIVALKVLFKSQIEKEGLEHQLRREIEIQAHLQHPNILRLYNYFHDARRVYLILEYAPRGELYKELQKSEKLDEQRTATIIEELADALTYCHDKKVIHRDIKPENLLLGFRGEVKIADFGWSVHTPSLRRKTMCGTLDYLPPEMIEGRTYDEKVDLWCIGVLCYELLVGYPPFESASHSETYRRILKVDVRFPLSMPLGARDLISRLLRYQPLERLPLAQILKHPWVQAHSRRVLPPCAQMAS
# UniProt P15056, whole entry, looked up: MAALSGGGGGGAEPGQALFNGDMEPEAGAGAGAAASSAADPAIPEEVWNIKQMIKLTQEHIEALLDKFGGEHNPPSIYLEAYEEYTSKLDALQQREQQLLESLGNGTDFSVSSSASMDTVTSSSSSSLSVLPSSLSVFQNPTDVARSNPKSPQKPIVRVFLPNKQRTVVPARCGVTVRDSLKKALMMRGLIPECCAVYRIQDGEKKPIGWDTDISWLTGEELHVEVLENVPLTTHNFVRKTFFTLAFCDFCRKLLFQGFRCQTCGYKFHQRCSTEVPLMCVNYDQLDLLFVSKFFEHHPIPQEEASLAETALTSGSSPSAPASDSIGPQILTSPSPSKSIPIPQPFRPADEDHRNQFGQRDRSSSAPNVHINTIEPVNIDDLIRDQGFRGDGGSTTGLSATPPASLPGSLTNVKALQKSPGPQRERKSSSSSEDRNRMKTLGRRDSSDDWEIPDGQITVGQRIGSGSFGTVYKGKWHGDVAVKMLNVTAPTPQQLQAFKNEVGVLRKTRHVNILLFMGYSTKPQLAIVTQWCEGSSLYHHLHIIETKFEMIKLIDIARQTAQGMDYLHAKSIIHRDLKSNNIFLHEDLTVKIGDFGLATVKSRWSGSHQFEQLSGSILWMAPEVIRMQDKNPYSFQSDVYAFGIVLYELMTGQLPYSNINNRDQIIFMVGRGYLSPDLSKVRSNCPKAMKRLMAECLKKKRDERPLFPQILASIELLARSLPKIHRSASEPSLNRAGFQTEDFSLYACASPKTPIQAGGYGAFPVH
# UniProt Q06187: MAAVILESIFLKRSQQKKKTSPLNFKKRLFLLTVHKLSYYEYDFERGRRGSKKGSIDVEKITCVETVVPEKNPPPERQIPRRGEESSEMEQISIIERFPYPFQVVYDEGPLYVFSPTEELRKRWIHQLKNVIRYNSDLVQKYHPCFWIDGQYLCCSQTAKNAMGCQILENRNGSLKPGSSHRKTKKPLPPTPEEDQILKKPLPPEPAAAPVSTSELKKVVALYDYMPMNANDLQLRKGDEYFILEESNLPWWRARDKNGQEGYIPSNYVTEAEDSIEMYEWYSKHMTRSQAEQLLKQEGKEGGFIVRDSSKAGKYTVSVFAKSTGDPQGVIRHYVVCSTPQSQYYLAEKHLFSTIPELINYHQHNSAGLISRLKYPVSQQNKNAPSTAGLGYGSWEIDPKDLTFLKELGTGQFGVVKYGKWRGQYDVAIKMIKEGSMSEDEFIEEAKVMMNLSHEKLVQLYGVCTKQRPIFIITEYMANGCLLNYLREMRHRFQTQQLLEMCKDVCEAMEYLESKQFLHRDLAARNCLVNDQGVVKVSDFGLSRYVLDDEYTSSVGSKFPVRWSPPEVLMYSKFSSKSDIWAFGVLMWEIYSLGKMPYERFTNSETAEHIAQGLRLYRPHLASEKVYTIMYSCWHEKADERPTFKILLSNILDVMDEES
# Structures can show the parent of a compound that is named as a salt. Some of the results follow. Hit calls seldom repeat between salt and free forms of one compound.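 Kinases, fused to nanoluciferase, were expressed in K562 cells; luminescence was measured every 4 h from 2 to 18 h as percent of control (DMSO = 100%, positive control = 0%). A time point is decreased if signal falls significantly (2 sigma). Hits were called by the authors by a rule that is not shown; the count of time points alone does not decide it.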
# What was measured:
# Conditions in all cases: K562; 2-18 h
# [1] = target: STK38 (UniProt Q15208); experiment: kinase-Nluc reporter destabilization hit call (1 = scored as downregulated) (binary); higher = compound decreases kinase abundance
# [2] = target: SYK (UniProt P43405); experiment: as above
# [3] = target: TEC (UniProt P42680); experiment: as above
# [4] = target: TYK2 (UniProt P29597); experiment: as above
# [5] = target: ULK3 (UniProt Q6PHR2); experiment: as above
# [6] = target: YES1 (UniProt P07947); experiment: as above
# [7] = target: ZAK (UniProt Q9NYL2); experiment: as above
# [8] = target: ZAP70 (UniProt P43403); experiment: as above
# [9] = target: ABL1 (UniProt P00519); experiment: number of time points (of 5) at which kinase-Nluc abundance scored as decreased, DMSO-normalised (count); higher = more persistent destabilization
# [10] = target: AKT1 (UniProt P31749); experiment: as above
# [11] = target: ALK (UniProt Q9UM73); experiment: as above
# [12] = target: ARAF (UniProt P10398); experiment: as above
# [13] = target: AURKA (UniProt O14965); experiment: as above
# [14] = target: AURKB (UniProt Q96GD4); experiment: as above
# [15] = target: AURKC (UniProt Q9UQB9); experiment: as above
# [16] = target: BLK (UniProt P51451); experiment: as above
# [17] = target: BMX (UniProt P51813); experiment: as above
# [18] = target: BRAF (UniProt P15056); experiment: as above
# [19] = tested on: BRAF_V600E; experiment: as above
# [20] = target: BTK (UniProt Q06187); experiment: as above
Structure (SMILES),kinase-Nluc reporter destabilization hit call [1],kinase-Nluc reporter destabilization hit call [2],kinase-Nluc reporter destabilization hit call [3],kinase-Nluc reporter destabilization hit call [4],kinase-Nluc reporter destabilization hit call [5],kinase-Nluc reporter destabilization hit call [6],kinase-Nluc reporter destabilization hit call [7],kinase-Nluc reporter destabilization hit call [8],number of time points [9],number of time points [10],number of time points [11],number of time points [12],number of time points [13],number of time points [14],number of time points [15],number of time points [16],number of time points [17],number of time points [18],number of time points [19],number of time points [20]
COCCNc1cc(NC(=O)N2CCCc3cc(CN4CCN(C)CC4=O)c(C=O)nc32)ncc1C#N [Roblitinib] (10 µM),inactive: 0,inactive: 0,inactive: 0,inactive: 0,inactive: 0,inactive: 0,inactive: 0,inactive: 0,0,0,0,0,0,0,0,0,0,0,0,0
Cc1cc(Nc2ncnc3ccc(-c4ccc(CNCCS(C)(=O)=O)o4)cc23)ccc1Oc1ccn2ncnc2c1 [ARRY-380 (analog )] (2.5 µM),inactive: 0,inactive: 0,inactive: 0,inactive: 0,inactive: 0,inactive: 0,inactive: 0,inactive: 0,0,0,0,0,0,0,0,0,0,0,0,0
COc1ccc(N=Nc2c(N)n[nH]c2N)cc1 (10 µM),inactive: 0,inactive: 0,inactive: 0,inactive: 0,inactive: 0,inactive: 0,inactive: 0,inactive: 0,0,0,0,0,0,0,0,0,0,0,0,0
COc1ccc(-c2coc3cc(O)ccc3c2=O)cc1 [Formononetin] (10 µM),inactive: 0,inactive: 0,inactive: 0,inactive: 0,inactive: 0,inactive: 0,inactive: 0,inactive: 0,0,0,0,0,0,0,0,0,0,0,0,0
CC(C)CCNC(=O)c1ccc2c(c1)nc(Nc1n[nH]c3ccc(-c4ccccc4OC(F)(F)F)cc13)n2C1CCC(O)CC1 (stereo not drawn) [IRAK inhibitor 4 (trans)] (10 µM),inactive: 0,inactive: 0,inactive: 0,inactive: 0,inactive: 0,inactive: 0,inactive: 0,inactive: 0,0,0,0,0,0,0,0,0,0,0,0,0
O=C(Nc1cccc(Nc2ncc(Br)c(NCCc3cnc[nH]3)n2)c1)N1CCCC1 (10 µM),inactive: 0,inactive: 0,inactive: 0,inactive: 0,inactive: 0,inactive: 0,inactive: 0,inactive: 0,4,0,1,0,0,0,0,3,0,0,1,0
COc1cc2ncnc(Nc3ccc(F)c(Cl)c3)c2cc1NC(=O)/C=C/CN1CCCCC1 [Dacomitinib] (10 µM),inactive: 0,inactive: 0,inactive: 0,inactive: 0,inactive: 0,inactive: 0,inactive: 0,inactive: 0,0,0,0,0,0,0,0,0,0,0,0,0
CNc1cc(Nc2cccn(-c3ccccn3)c2=O)nn2c(C(=O)N[C@@H]3C[C@@H]3F)cnc12 (2.5 µM),inactive: 0,inactive: 0,inactive: 0,inactive: 0,inactive: 0,inactive: 0,inactive: 0,inactive: 0,0,0,0,0,0,0,0,0,0,0,0,0
Nc1c(C(=O)NCc2ccc(C(=O)NCCCC3CCCCC3)cc2)cnn1-c1ccccc1 (2.5 µM),inactive: 0,inactive: 0,inactive: 0,inactive: 0,inactive: 0,inactive: 0,inactive: 0,inactive: 0,0,0,0,0,0,0,0,0,0,0,0,0
O=C(CNc1cccc(Cl)c1)NC1CCCN(c2ncnc3[nH]ccc23)C1 (stereo not given) (10 µM),inactive: 0,inactive: 0,inactive: 0,inactive: 0,inactive: 0,inactive: 0,inactive: 0,inactive: 0,0,0,0,0,0,0,0,0,0,0,0,0
Cc1ccn2c(C(=O)C(=O)c3ccccc3)c(-c3ccccc3)nc2c1 (10 µM),inactive: 0,inactive: 0,inactive: 0,inactive: 0,inactive: 0,inactive: 0,inactive: 0,inactive: 0,0,0,0,0,0,0,0,0,0,0,0,0
Cc1cc(Nc2nc(CC3(C(=O)O)CCN(C(=O)c4cccc(Cl)c4Cl)CC3)ccc2F)n[nH]1 (10 µM),inactive: 0,inactive: 0,inactive: 0,inactive: 0,inactive: 0,inactive: 0,inactive: 0,inactive: 0,3,0,0,0,0,0,0,1,2,0,2,0
Cc1cccc(-c2[nH]c(C(C)(C)C)nc2-c2ccc3nccnc3c2)n1 (10 µM),inactive: 0,inactive: 0,inactive: 0,inactive: 0,inactive: 0,inactive: 0,inactive: 0,inactive: 0,0,0,0,0,0,0,0,0,0,0,0,0
NC(=S)n1[nH]c(-c2ccc([N+](=O)[O-])cc2)c(N=Nc2cccc(Cl)c2)c1=O (2.5 µM),inactive: 0,inactive: 0,inactive: 0,inactive: 0,inactive: 0,inactive: 0,inactive: 0,inactive: 0,0,0,0,0,0,0,0,0,4,0,0,0
CC(C)(C[C@H](N)C(=O)O)C(F)F [NV-5138 (hydrochloride)] (10 µM),inactive: 0,inactive: 0,inactive: 0,inactive: 0,inactive: 0,inactive: 0,inactive: 0,inactive: 0,0,0,0,0,0,0,0,0,0,0,0,0
C=CC(=O)Nc1cccc(-c2cccc3cnc(Nc4ccc(N5CCN(CCO)CC5)c(F)c4F)nc23)c1 [Olafertinib] (2.5 µM),inactive: 0,inactive: 0,inactive: 0,inactive: 0,inactive: 0,inactive: 0,inactive: 0,inactive: 0,0,0,0,0,0,0,0,0,0,0,0,0
CC(C)N1CCN(c2ccc(Nc3ncc4cc5n(c4n3)C3(CCCCC3)CNC5=O)nc2)CC1 [Lerociclib (dihydrochloride)] (2 µM),inactive: 0,inactive: 0,inactive: 0,inactive: 0,inactive: 0,inactive: 0,inactive: 0,inactive: 0,0,0,3,0,3,3,0,0,1,0,0,0
O=C(O)c1cccc(CN2C(=O)/C(=C(\c3ccccc3)c3ccc(Cl)cc3)c3ccccc32)c1 (2.5 µM),inactive: 0,inactive: 0,inactive: 0,inactive: 0,inactive: 0,inactive: 0,inactive: 0,inactive: 0,0,0,0,0,0,0,0,0,0,0,0,0
COc1cc(N(C)CCN(C)C)c(N)cc1Nc1nccc(-c2cn(C)c3ccccc23)n1 [Mutated EGFR-IN-1] (10 µM),inactive: 0,inactive: 0,inactive: 0,inactive: 0,inactive: 0,inactive: 0,inactive: 0,inactive: 0,0,0,0,0,0,0,0,3,0,0,0,0
C[C@H](NC(=O)[C@H]1NCC[C@@H]1O)c1ccc(-c2noc(CCC3CCCC3)n2)cc1 (10 µM),inactive: 0,inactive: 0,inactive: 0,inactive: 0,inactive: 0,inactive: 0,inactive: 0,inactive: 0,0,0,0,0,0,0,0,0,0,0,0,0
Cn1cc(-c2c[nH]c3ncnc(N4CCOCC4)c23)cc1C#N (10 µM),inactive: 0,inactive: 0,inactive: 0,inactive: 0,inactive: 0,inactive: 0,inactive: 0,inactive: 0,0,0,0,0,0,0,0,0,0,0,0,0
Cc1ccc(Oc2nc3cc(-c4ccc(-c5ccccc5)cc4)c(Cl)cc3[nH]2)cc1C(=O)O (10 µM),inactive: 0,inactive: 0,inactive: 0,inactive: 0,inactive: 0,inactive: 0,inactive: 0,inactive: 0,0,0,0,0,0,0,0,0,0,0,0,0

# Sorted by length of the SMILES (rising): 3 of the compounds above.
Structure (SMILES),kinase-Nluc reporter destabilization hit call [1],kinase-Nluc reporter destabilization hit call [2],kinase-Nluc reporter destabilization hit call [3],kinase-Nluc reporter destabilization hit call [4],kinase-Nluc reporter destabilization hit call [5],kinase-Nluc reporter destabilization hit call [6],kinase-Nluc reporter destabilization hit call [7],kinase-Nluc reporter destabilization hit call [8],number of time points [9],number of time points [10],number of time points [11],number of time points [12],number of time points [13],number of time points [14],number of time points [15],number of time points [16],number of time points [17],number of time points [18],number of time points [19],number of time points [20]
Cn1cc(-c2c[nH]c3ncnc(N4CCOCC4)c23)cc1C#N (10 µM),inactive: 0,inactive: 0,inactive: 0,inactive: 0,inactive: 0,inactive: 0,inactive: 0,inactive: 0,0,0,0,0,0,0,0,0,0,0,0,0
Cc1ccc(Oc2nc3cc(-c4ccc(-c5ccccc5)cc4)c(Cl)cc3[nH]2)cc1C(=O)O (10 µM),inactive: 0,inactive: 0,inactive: 0,inactive: 0,inactive: 0,inactive: 0,inactive: 0,inactive: 0,0,0,0,0,0,0,0,0,0,0,0,0
Cc1cc(Nc2ncnc3ccc(-c4ccc(CNCCS(C)(=O)=O)o4)cc23)ccc1Oc1ccn2ncnc2c1 [ARRY-380 (analog )] (2.5 µM),inactive: 0,inactive: 0,inactive: 0,inactive: 0,inactive: 0,inactive: 0,inactive: 0,inactive: 0,0,0,0,0,0,0,0,0,0,0,0,0
